Measured values taken from US20260234233A1 (PETMEDIX, published 2026).
Results are given in words; binding and its absence hold for the method and conditions named. Some results given as binding are weak or reduced against the parent protein; the word gives no strength. Sequences can lack the tags named with a protein.

Biological target: T1, Human NT-4 (human, UniProt P34130 81-210)
T1 construct: mature; also called hNT-4
T1 sequence (looked up): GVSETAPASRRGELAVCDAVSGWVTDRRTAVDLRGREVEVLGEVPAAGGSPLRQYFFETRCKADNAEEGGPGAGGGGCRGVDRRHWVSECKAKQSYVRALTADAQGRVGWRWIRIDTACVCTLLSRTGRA
Assay: SPR, Biacore 8K, binder captured on Protein A chip, ligand as analyte

B1: PetML119-E75T (Canine p75NTR ECD E75T-canine IgGB wt Fc) (Fc fusion)
chain: KEACPTGLYTHSGECCKACNLGEGVAQPCGANQTVCEPCLDSVTFSDVVSATEPCKPCTECVGLQSMSAPCVEATDAVCRCAYGYYQDETTGRCEACRVCEAGSGLVFSCQDRQNTVCEECPDGTYSDEANHVDPCLPCTVCEDTERQLRECTRWADAECEEIPGRGGGGRENGRVPRPPDCPKCPAPEMLGGPSVFIFPPKPKDTLLIARTPEVTCVVVDLDPEDPEVQISWFVDGKQMQTAKTQPREEQFNGTYRVVSVLPIGHQDWLKGKQFTCKVNNKALPSPIERTISKARGQAHQPSVYVLPPSREELSKNTVSLTCLIKDFFPPDIDVEWQSNGQQEPESKYRTTPPQLDEDGSYFLYSKLSVDKSRWQRGDTFICAVMHEALHNHYTQKSLSHSPGK
notes: The signal peptide (first 19 residues) is left out as for PetML119
- binding: binds
